Results on 77 compounds are retold here after the supplement of paper PMC11060735.

Where “and” joins values, the source holds several entries; their conditions need not be identical. Equal entries are not always repeated. Structures can show the parent of a compound that is named as a salt. ± gives the standard deviation of the averaged measurements. Whole data set: some 1,800 compounds, median “GFP- (p16Ink4a-) cell count relative to negative-control wells” near 0.99, cut for the lowest 2% near 0.5. Some of the results follow. Square brackets hold non-standard residues; d marks the D form. Peptide text beside a SMILES is read from it. pGlu = O=C1CC[C@@H](C(=O)O)N1; Thz = O=C(O)[C@@H]1CSCN1

In this assay the test system is mouse p16Ink4a+/- lung fibroblasts (INKBRITE, bleomycin-injured). The assay is described as follows: GFP- (p16Ink4a-) cell count relative to negative-control wells (fold of vehicle); higher = more p16Ink4a- cells surviving. Particulars: 1 µM; 3 days.
As for `C[C@@H](O[C@H]1OCCN(Cc2n[nH]c(O)n2)[C@H]1c1ccc(F)cc1)c1cc(C(F)(F)F)cc(C(F)(F)F)c1` [Aprepitant], the GFP- worked out at 1.06.
To `Oc1ccc(OCc2ccccc2)cc1` [Monobenzone] belongs 0.704; to `Nc1ccc(O)c(C(=O)O)c1` [Mesalazine], 0.815; to `O=c1ncccn1[C@@H]1O[C@H](CO)[C@H](O)C1O` (some centres not stated) [Zebularine], 1.01 ± 0.07.
The value for `COc1cc(-c2cc3ccccc3[nH]2)[nH]c1/C=C1\N=C(C)C=C1C` [Obatoclax Mesylate] was 0.249.
`CC(C)(Oc1ccc(CCNC(=O)c2ccc(Cl)cc2)cc1)C(=O)O` [Bezafibrate] registered a GFP- of 1.2.
The value for `C[C@@H](O[C@H]1OCCN(Cc2nc(O)n(P(=O)(O)O)n2)[C@H]1c1ccc(F)cc1)c1cc(C(F)(F)F)cc(C(F)(F)F)c1` [Fosaprepitant] was 0.943; that for `Cc1cc2c(F)c(Oc3ncnn4cc(OC[C@@H](C)OC(=O)[C@H](C)N)c(C)c34)ccc2[nH]1` [Brivanib Alaninate] was 0.978; that for `C=C1/C(=C/C=C2/CCC[C@]3(C)[C@@H]([C@H](C)CCCC(C)C)CC[C@@H]23)C[C@@H](O)C[C@@H]1O` [Alfacalcidol] was 1.3.
To `C[C@]12CC[C@@H]3c4ccc(O)cc4CC[C@H]3[C@@H]1C[C@@H](O)[C@@H]2O` [Estriol] belongs 0.927; to `C[C@H]1[C@H](C)C[C@@H](C(=O)O)C2CC[C@]3(C)C(=CC[C@@H]4[C@@]5(C)CC[C@H](O)C(C)(C)[C@@H]5CC[C@]43C)[C@@H]21` (some centres not stated) [Ursolic Acid], 1.05; to `CN(C)CCOc1ccc(-c2nc(-c3ccc4c(c3)CC/C4=N\O)c(-c3ccncc3)[nH]2)cc1`, 1.23.
`CN(C)[C@@H](CCOc1cccc2ccccc12)c1ccccc1` [Dapoxetine] displayed a GFP- of 1.12.
The value for `CCCSc1ccc2[nH]c(NC(=O)OC)nc2c1` [Albendazole] was 0.802; that for `NS(=O)(=O)c1cc(Cl)c(Cl)c(S(N)(=O)=O)c1` [Diclofenamide] was 0.918.
`CCc1ccc(CCOc2ccc(CC3SC(=O)NC3=O)cc2)nc1` (configuration not stated) [Pioglitazone]: the GFP- is 1.05 and 1.1.
To `Cc1ccc(NC(=O)c2ccc(CN3CCN(C)CC3)cc2)cc1Nc1nccc(-c2cccnc2)n1` [Imatinib, Imatinib Mesylate] belongs 1.04 and 0.966; to `Nc1ccn([C@H]2CC[C@@H](CO)O2)c(=O)n1` [Zalcitabine], 0.961; to `CC(C)CN(C[C@@H](O)[C@H](Cc1ccccc1)NC(=O)O[C@H]1CO[C@H]2OCC[C@H]21)S(=O)(=O)c1ccc(N)cc1` [Darunavir], 0.901.
As to `CNC(=O)c1cc(Oc2ccc(NC(=O)Nc3ccc(Cl)c(C(F)(F)F)c3)c(F)c2)ccn1` [Regorafenib], the GFP- stood at 0.977.
In the case of `O=C(O)Cc1ccccc1Nc1c(Cl)cccc1Cl` [Diclofenac], the GFP- was 1.1 and 0.997 and 1.08.
`N#Cc1ccc(C(c2ccc(C#N)cc2)n2cncn2)cc1` [Letrozole] displayed a GFP- of 0.829.
In the case of `O=C(O)c1ccc(/C=C2/SC(=S)N(c3cccc(C(F)(F)F)c3)C2=O)cc1`, the GFP- came to 1.08.
To `C[C@@H](O)[C@H]1C(=O)N2C(C(=O)OCOC(=O)C(C)(C)C)=C(SC3CN(C4=NCCS4)C3)[C@H](C)[C@H]12` [Tebipenem Pivoxil] belongs 0.967; to `CN(C)CC(=O)Nc1ccc2nc(O)c3ccccc3c2c1`, 1.06 ± 0.057.
To `c1ccc(CN(CC2=NCCN2)c2ccccc2)cc1` [Antazoline] belongs 0.943; to `Oc1c(Br)cc(Br)c2cccnc12` [Broxyquinoline], 0.897.
The value for `Nc1ccc2ncnc(NCCc3ccc(Oc4ccccc4)cc3)c2c1` was 0.942; that for `CC(C)(O)[C@H]1CC[C@@](C)([C@H]2[C@@H](O)C[C@@]3(C)[C@@H]4C[C@H](O[C@@H]5O[C@H](CO)[C@@H](O)[C@H](O)[C@H]5O)[C@H]5C(C)(C)[C@@H](O[C@@H]6OC[C@@H](O)[C@H](O)[C@H]6O)CC[C@@]56C[C@@]46CC[C@]23C)O1` [Astragaloside A] was 0.817; that for `CNC(=O)c1nn(C)c2c1C(C)(C)Cc1cnc(Nc3ccc(N4CCN(C)CC4)cc3)nc1-2` [Milciclib] was 0.728.
On to `S=C(NCc1ccc2c(c1)OCO2)N1CCN(c2ncnc3c2oc2ccccc23)CC1` [Amuvatinib], for which the GFP- amounted to 1.03.
For the compound `O=C(CCCCCN1C(=O)c2cccc3cccc(c23)C1=O)NO` [Scriptaid], the GFP- came out at 0.563 ± 0.04.
In turn, `COc1ccc2c(c1)c(C1=C(c3c[nH]c4ccccc34)C(=O)NC1=O)cn2CCCN(C)C` came in with a GFP- of 0.797.
In turn, `Cn1cc(CNCC2CCN(c3ncc(C(=O)NO)cn3)CC2)c2ccccc21` [Quisinostat] displayed a GFP- of 0.522 ± 0.027.
Take `Nc1nccc2c1ncn2[C@@H]1C=C(CO)[C@@H](O)[C@H]1O` [3-Deazaneplanocin A (DZNeP)]: the GFP- worked out at 0.833 ± 0.05.
The value for `O=[N+]([O-])c1cn2c(n1)OC[C@@H](OCc1ccc(OC(F)(F)F)cc1)C2` was 0.911.
As to `CC(C(=O)O)c1cccc(Oc2ccccc2)c1` (configuration not stated) [Fenoprofen], the GFP- worked out at 0.886.
The value for `Cc1cccc(-c2[nH]c(C(C)(C)C)nc2-c2ccc3nccnc3c2)n1` was 1.27; that for `Oc1ccc(Nc2nc(-c3ccc(Cl)cc3)cs2)cc1` was 0.947.
To `COc1cc2c(cc1OC)[C@@H]1Cc3ccc(OC)c(OC)c3CN1CC2` [Rotundine] belongs 1.01.
The value for `N=C(N)NC(=O)c1nc(Cl)c(N)nc1N` [Amiloride] was 0.97; that for `CCCc1ncc(C[n+]2ccccc2C)c(N)n1` [Amprolium] was 1.02.
Consider `CCOc1ccc(Cc2cc([C@@H]3O[C@H](CO)[C@@H](O)[C@H](O)[C@H]3O)ccc2Cl)cc1` [Dapagliflozin], for which the GFP- worked out at 1.12.
The value for `O=C1CC[C@@H](C(=O)N2CSC[C@H]2C(=O)O)N1` [Pidotimod] ([pGlu]-[Thz]-OH) was 1.17; that for `CC(=O)OCC(=O)NCCCOc1cccc(CN2CCCCC2)c1` [Roxatidine acetate] was 0.987; that for `OC[C@@H](O)[C@@H](O)[C@H](O)[C@H](O)CO` [Mannitol] was 1.13.
To `Nc1nc(N)c2nc(-c3cccc(O)c3)cnc2n1` belongs 0.953; to `CN1CCN(C(c2ccccc2)c2ccccc2)CC1` [Cyclizine], 0.973.
With `CCCCOc1c(C(=O)c2c(F)cc(C)cc2F)cnc2[nH]ncc12`, the GFP- amounted to 0.973.
The value for `FC(F)c1nc2ccccc2n1-c1nc(N2CCOCC2)nc(N2CCOCC2)n1` was 0.711.
The value for `C[C@]1(O)C[C@@H](c2nc(-c3ccc4ccc(-c5ccccc5)nc4c3)c3c(N)nccn32)C1` [Linsitinib] was 0.931.
As for `OC1(c2ccc(Cl)c(C(F)(F)F)c2)CCN(CCCC(c2ccc(F)cc2)c2ccc(F)cc2)CC1` [Penfluridol], the GFP- was determined as 0.901.
The value for `COc1cc2c(cc1OC)CC(=O)N(CCCN(C)C[C@H]1Cc3cc(OC)c(OC)cc31)CC2` [Ivabradine] was 1.14; that for `O=C(NOCC1CC1)c1ccc(F)c(F)c1Nc1ccc(I)cc1Cl` was 0.839; that for `CC[C@]1(O)C[C@@H]2CN(CCc3c([nH]c4ccccc34)[C@@](C(=O)OC)(c3cc4c(cc3OC)N(C=O)[C@@H]3C45CCN4CC=C[C@](CC)([C@H]45)[C@@H](OC(C)=O)[C@]3(O)C(=O)OC)C2)C1` (some centres not stated) [Vincristine] was 0.699.
`NC(=O)C1CCCc2c1[nH]c1ccc(Cl)cc21` (configuration not stated) [Selisistat] showed a GFP- of 0.942 ± 0.17.
To `Cc1[nH]c(/C=C2\C(=O)Nc3ccc(S(=O)(=O)Cc4c(Cl)cccc4Cl)cc32)c(C)c1C(=O)N1CCC[C@@H]1CN1CCCC1` belongs 0.404; to `COc1cc2ncnc(Sc3nnc(C)s3)c2cc1OC`, 0.908.
Regarding `NCCc1c[nH]cn1` [Histamine], the GFP- was found to be 1.02.
In turn, `CCN(CC)Cc1ccc2cc(COC(=O)Nc3ccc(C(=O)NO)cc3)ccc2c1` [Givinostat] yielded a GFP- of 0.572 ± 0.012.
The value for `COc1cc(C(C)=O)ccc1OCCCN1CCC(c2noc3cc(F)ccc23)CC1` [Iloperidone] was 0.929; that for `CN1CCC(=C2c3ccccc3CCc3sccc32)CC1` [Pizotyline Malate] was 0.902; that for `OC(Cn1cncn1)(Cn1cncn1)c1ccc(F)cc1F` [Fluconazole] was 1.22.
`CCN(CC)CCNC(=O)c1c(C)[nH]c(/C=C2\C(=O)Nc3ccc(F)cc32)c1C` [Sunitinib] returned a GFP- of 0.755.
`O=C(c1ccc(OCCN2CCCCC2)cc1)c1c(-c2ccc(O)cc2)sc2cc(O)ccc12` [Raloxifene]: the GFP- worked out at 0.809.
The compound `CO/C(O)=C1/C(C)=NC(C)=C(C(=O)OC(C)C)C1c1cccc2nonc12` (configuration not stated) [Isradipine] had a GFP- of 1.06.
The compound `COc1ccc(F)c(F)c1C(=O)c1cnc(NC2CCN(S(C)(=O)=O)CC2)nc1N` had a GFP- of 0.777.
Compound `Cc1c(C(=O)Nc2ccc(N3CCC(N4CCOCC4)CC3)c(C#N)c2)cnn1-c1ccc(Cl)cc1` gave a GFP- of 0.605.
The value for `CN(C)c1ccc(C(=C2C=CC(=[N+](C)C)C=C2)c2ccc(N(C)C)cc2)cc1` [Gentian Violet] was 0.494.
In the case of `N[C@@H](CC(=O)N1CCn2c(nnc2C(F)(F)F)C1)Cc1cc(F)c(F)cc1F` [Sitagliptin], the GFP- turned out to be 1.16.
`OCCN(CCO)c1nc(N2CCCCC2)c2nc(N(CCO)CCO)nc(N3CCCCC3)c2n1` [Dipyridamole]: the GFP- was found to be 0.942.
As to `CC(=O)SCC(Cc1ccccc1)C(=O)NCC(=O)OCc1ccccc1` (configuration not stated) [Racecadotril], the GFP- was found to be 0.972.
The value for `O=C(c1ccc(OCCCc2c[nH]cn2)cc1)C1CC1` [Ciproxifan] was 1.01; that for `CC1(C)O[C@H]2CC(=O)OC[C@]23[C@H]2CC[C@@]4(C)[C@H](c5ccoc5)OC(=O)[C@H]5O[C@]54[C@]2(C)C(=O)C[C@@H]13` [Limonin] was 0.967; that for `C[C@@H]1C[C@H]2[C@@H]3C[C@H](F)C4=CC(=O)C=C[C@]4(C)[C@@]3(F)[C@@H](O)C[C@]2(C)[C@@]1(O)C(=O)CO` [Flumethasone] was 1.01.
The value for `CC(C)C(=O)Nc1ccc([N+](=O)[O-])c(C(F)(F)F)c1` [Flutamide] was 1.16; that for `Cc1ccc(C(=O)N(CCCN)[C@@H](c2oc3cc(Cl)ccc3c(=O)c2Cc2ccccc2)C(C)C)cc1` was 0.595.
